Experimental data taken from patent US20240254066A1, “RESCORCINOLS, METHODS FOR THEIR MANUFACTURE, AND USES THEREOF” (GW Research Limited, priority 2021, published 2024).

Test system: tonic hind limb extensor convulsions (mouse model of generalised seizure)
Experiment: mini-MEST (maximal electroshock seizure threshold) test in the mouse
Conditions: diazepam 2.5 mg/kg i.p., test 30 min post dose; current producing tonic hind limb extension in 50% of animals
Experimental: The efficacy of novel resorcinols 2, 3, 5, 8, 10, 15, 16, 17, 18, 19, 41 45, 46, 53, 56 and 58 were tested in a novel mouse model of generalised seizure, the mini-MEST (maximal electroshock seizure threshold) test, which uses lower n numbers than typically used.
The maximal electroshock seizure threshold (MEST) test is widely utilized preclinically to evaluate pro- or anti-convulsant properties of test compounds (Loscher et al., 1991).
In the MEST test the ability of a drug to alter the seizure threshold current required to induce hind limb tonic extensor convulsions is measured according to an “up and down” method of shock titration (Kimball et al., 1957). An increase in seizure threshold is indicative of anti-convulsant effect.
The ability of a test compound to alter the stimulus intensity, expressed as current (mA), required to induce the presence of tonic hind limb extensor convulsions, is assessed in the MEST.
Naïve mice were acclimatised to the procedure room in their home cages for up to 7 days, with food and water available ad libitum. […]
Test compound effects were also calculated as percentage change in CC50 from the vehicle control group.
Significant difference between drug-treated animals and controls were assessed according to Litchfield and Wilcoxon (1949).

In the case of CN1C(=O)CN=C(c2ccccc2)c2cc(Cl)ccc21 [Diazepam, diazepam, reference compound], the “CC50 +/− SEM” value is reported as 85.0-128.0 mA.
